# Test: physchem
# Conditions: buffer
smiles,measurement,value
Nc1nc(Nc2ccc(Oc3ccnc4[nH]ccc34)c(F)c2)cc(-c2ccncc2)n1,solubility,3 µg/mL

# — ChEMBL document CHEMBL5715943, “Design and synthesis of potent and selective azaindole-based Rho kinase (ROCK) inhibitors” (ChemMedChem, 2008)
